According to paper PMC8125178, “Fluorescence Correlation Spectroscopy Analysis of Effect of Molecular Crowding on Self-Assembly of β-Annulus Peptide into Artificial Viral Capsid” (International Journal of Molecular Sciences, 2021):
No constants are given. Whether binding was seen depends on the method and setting.

Key:
[1] = target: BODIPY-β-annulus peptide (tomato bushy stunt virus); experiment: fluorescence correlation spectroscopy (FCS); 0.1 μM BODIPY-β-annulus peptide with 0~200 μM β-annulus peptide in 10 mM Tris-HCl buffer (pH 7.0) with 5 wt% PEG2000, 25 °C; ratio of the slow component fitted to the Hill equation; both purified
[2] = target: BODIPY-β-annulus peptide (tomato bushy stunt virus); experiment: fluorescence correlation spectroscopy (FCS); 0.1 μM BODIPY-β-annulus peptide with 0~200 μM β-annulus peptide in 10 mM Tris-HCl buffer (pH 7.0), sonicated 10 min, incubated 30 min, 25 °C; ratio of the slow component fitted to the Hill equation; apparent Kd; both purified

Binder: CINHVGGTGGAIMAPVAVTRQLVGS (BODIPY-maleimide added by Michael addition to the thiol of the N-terminal Cys) [BODIPY-β-annulus peptide]
- binding [1]: no binding (tested: 0.1 μM)
- binding [2]: no binding (tested: 0.1 μM)
